Experimental data taken from PMC9060002.
No constants are given. Whether binding was seen depends on the method and setting. Binding seen in cells or lysates may run through a third protein. Here binding means that the protein was enriched with, or labelled near, the bait; the list need not be complete.

By UniProt entry, the sequences of proteins in these tests, tags left out. Residues count along the entry.
UniProt P04792: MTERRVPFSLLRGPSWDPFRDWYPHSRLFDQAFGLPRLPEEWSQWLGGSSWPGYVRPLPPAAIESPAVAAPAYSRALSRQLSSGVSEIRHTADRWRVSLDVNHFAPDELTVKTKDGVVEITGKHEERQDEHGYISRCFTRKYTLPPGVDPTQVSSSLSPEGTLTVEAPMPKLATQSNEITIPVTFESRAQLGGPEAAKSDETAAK
UniProt P08238: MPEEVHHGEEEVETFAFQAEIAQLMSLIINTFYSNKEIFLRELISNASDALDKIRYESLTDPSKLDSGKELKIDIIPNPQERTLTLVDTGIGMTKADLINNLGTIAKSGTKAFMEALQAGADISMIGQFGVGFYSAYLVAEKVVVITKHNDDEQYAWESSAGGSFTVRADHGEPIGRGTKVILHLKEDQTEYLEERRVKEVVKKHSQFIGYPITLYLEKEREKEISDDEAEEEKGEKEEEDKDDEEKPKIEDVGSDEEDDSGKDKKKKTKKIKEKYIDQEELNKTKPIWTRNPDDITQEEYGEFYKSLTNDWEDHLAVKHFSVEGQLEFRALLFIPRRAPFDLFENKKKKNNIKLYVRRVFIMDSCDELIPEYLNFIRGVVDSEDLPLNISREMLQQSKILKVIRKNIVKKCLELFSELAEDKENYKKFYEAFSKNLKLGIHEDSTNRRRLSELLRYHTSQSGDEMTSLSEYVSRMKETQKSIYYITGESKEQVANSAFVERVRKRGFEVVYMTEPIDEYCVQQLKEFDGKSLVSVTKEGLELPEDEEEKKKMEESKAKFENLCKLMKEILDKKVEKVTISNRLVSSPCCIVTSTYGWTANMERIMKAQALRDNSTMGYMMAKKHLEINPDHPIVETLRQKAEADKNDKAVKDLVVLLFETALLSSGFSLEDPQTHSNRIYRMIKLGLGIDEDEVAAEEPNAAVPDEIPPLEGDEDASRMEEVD
UniProt P08670: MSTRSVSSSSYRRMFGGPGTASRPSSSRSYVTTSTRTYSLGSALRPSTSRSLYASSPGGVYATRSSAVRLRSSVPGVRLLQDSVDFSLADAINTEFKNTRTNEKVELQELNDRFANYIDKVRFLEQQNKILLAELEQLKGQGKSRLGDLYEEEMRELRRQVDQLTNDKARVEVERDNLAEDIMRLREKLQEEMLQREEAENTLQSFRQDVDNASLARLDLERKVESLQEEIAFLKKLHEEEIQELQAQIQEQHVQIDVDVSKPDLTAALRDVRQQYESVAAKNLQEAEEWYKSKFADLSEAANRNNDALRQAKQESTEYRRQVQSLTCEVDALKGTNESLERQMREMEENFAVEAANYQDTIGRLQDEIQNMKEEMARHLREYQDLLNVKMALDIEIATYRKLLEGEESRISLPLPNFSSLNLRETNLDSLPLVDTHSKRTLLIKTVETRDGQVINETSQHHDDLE
UniProt P30101, residues 25-505: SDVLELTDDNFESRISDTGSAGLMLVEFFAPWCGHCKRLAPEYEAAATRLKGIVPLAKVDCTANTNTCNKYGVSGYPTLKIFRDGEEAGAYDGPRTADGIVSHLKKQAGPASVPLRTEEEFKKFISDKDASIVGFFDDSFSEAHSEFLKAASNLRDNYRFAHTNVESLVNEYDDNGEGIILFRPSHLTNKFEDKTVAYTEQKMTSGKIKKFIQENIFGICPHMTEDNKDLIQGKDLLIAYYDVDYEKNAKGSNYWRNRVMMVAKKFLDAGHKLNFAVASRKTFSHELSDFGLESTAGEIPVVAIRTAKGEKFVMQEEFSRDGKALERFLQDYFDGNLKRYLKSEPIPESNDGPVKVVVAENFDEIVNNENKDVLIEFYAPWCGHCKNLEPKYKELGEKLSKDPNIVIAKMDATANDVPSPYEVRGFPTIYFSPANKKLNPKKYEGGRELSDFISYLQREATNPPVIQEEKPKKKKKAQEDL
UniProt P10809, residues 27-573: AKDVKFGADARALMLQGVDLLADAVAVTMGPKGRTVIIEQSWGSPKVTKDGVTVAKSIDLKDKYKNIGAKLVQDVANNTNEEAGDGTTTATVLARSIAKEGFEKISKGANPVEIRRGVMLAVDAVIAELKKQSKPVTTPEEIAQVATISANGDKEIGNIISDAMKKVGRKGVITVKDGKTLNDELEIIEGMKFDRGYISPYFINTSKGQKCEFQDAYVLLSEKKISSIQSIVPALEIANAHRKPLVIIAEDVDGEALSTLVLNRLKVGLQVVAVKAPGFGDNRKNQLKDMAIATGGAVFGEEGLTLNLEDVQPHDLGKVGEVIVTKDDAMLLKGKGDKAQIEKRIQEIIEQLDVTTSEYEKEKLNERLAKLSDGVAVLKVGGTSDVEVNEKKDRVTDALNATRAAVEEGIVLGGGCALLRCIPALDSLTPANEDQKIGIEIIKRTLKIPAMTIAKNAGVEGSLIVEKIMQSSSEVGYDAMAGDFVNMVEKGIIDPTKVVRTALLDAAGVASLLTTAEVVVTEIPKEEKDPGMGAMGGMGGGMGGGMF
UniProt P06396, residues 28-782: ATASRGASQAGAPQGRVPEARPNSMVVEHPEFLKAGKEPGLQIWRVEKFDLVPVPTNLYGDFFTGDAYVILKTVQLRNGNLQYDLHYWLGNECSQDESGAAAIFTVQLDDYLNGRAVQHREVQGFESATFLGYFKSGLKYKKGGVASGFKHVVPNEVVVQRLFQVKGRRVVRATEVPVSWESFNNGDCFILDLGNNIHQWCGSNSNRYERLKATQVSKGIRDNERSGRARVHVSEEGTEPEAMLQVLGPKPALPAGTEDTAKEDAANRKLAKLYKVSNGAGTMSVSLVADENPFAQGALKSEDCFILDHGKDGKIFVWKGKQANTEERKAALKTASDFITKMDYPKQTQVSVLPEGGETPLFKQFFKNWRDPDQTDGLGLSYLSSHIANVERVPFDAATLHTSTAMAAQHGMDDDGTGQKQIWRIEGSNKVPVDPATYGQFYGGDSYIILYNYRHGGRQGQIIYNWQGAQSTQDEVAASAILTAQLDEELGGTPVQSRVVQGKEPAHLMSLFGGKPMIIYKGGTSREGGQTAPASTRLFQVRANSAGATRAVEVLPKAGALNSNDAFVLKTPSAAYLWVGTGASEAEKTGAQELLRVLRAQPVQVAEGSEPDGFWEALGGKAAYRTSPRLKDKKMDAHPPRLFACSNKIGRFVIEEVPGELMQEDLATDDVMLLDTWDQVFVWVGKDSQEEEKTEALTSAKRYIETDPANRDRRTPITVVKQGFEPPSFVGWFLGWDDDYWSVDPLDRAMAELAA
UniProt Q03135: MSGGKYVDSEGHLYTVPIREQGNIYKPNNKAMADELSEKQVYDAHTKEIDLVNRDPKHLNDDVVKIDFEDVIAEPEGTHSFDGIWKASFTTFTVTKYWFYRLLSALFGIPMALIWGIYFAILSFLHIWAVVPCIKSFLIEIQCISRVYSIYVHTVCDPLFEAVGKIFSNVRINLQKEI
UniProt P05121, residues 24-402: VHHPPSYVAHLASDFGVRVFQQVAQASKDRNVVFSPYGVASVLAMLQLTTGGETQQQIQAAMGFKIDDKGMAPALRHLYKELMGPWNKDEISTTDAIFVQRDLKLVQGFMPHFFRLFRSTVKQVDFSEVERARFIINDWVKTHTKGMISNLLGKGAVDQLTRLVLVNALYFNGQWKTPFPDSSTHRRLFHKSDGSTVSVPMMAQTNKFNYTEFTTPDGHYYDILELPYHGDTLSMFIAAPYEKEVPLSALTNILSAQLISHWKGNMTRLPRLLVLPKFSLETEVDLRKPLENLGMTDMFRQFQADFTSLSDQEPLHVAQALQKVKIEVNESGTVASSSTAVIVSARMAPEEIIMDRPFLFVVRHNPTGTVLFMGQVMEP

B1: S100A8 (protein, UniProt P05109 1-93)
chain: MLTELEKALNSIIDVYHKYSLIKGNFHAVYRDDLKKLLETECPQYIRKKGADVWFKELDINTDGAVNFQEFLILVIKMGVAAHKKSHEESHKE

The molecules below were run against Yes-associated protein 1 (YAP1) (human (endogenous in CFBE)) (UniProt P46937) (assay: affinity purification with mass spectrometry; YAP1 immunoprecipitated with anti-YAP1 crosslinked beads from CFBE wt- and F508del-CFTR cell lysates; short SDS-PAGE, in-gel trypsin digest, nanoLC-MS/MS; interactors are proteins identified in at least two of three replicates; the named hits belong to the F508del-CFTR-specific set).

binding, binds:
HSPB1 (heat shock protein β-1) (from UniProt P04792 1-205)
HSP90AB1 (heat shock protein 90 α family class B member 1) (from UniProt P08238 1-724)
VIM (vimentin) (from UniProt P08670 1-466)
PDIA3 (protein disulfide-isomerase A3) (from UniProt P30101 25-505)
HSPD1 (from UniProt P10809 27-573)
TP53 (tumor protein p53) (from UniProt P04637 1-393)
Gelsolin (GSN) (from UniProt P06396 28-782)
CAV1 (caveolin-1) (from UniProt Q03135 1-178)
plasminogen activator inhibitor 1 (PAI-1, SERPINE1) (from UniProt P05121 24-402)

Molecular target: Yes-associated protein 1 (YAP1) (human (endogenous in CFBE)) (UniProt P46937)
Experiment: as above
Remark: another data set of the same source

binding, binds:
B1
